# Source: patent US10946053B2, “Composition containing mixed extract of mulberry and Poria cocos bark for preventing, improving or treating neurodegenerative disorders” (NeuroBo Pharmaceuticals, Inc., priority 2014, dated 2021)
# How the values were obtained:
# [1] = test system: NGF (Nerve Growth Factor); experiment: NGF level measurement in brain (ELISA), normal animals; assay type: in vivo, ICR mouse; conditions: extracts 100 mg/kg, Donepezil 1 mg/kg
# [2] = test system: SH-SY5Y cells; experiment: Cell protection effect in nerve cell line (MTT assay), Aβ42 toxicity; assay type: cell-based; conditions: Donepezil 10 μM
# Experimental: The cytoprotective effect of herbal mixed extracts was measured using a MTT (3-(4,5-Dimethylthiazol-2-yl)-2,5-Diphenyltetrazolium Bromide) assay in a model that causes toxicity to nerve cell lines by artificially aggregated Aβ42.
# [3] = test system: beta amyloid (Aβ40); experiment: Measurement of beta amyloid production in brain (ELISA), normal animals; assay type: in vivo, ICR mouse; conditions: extracts 100 mg/kg, Donepezil 1 mg/kg
# [4] = normal mice, 5 days administration, brain, per 1 mg protein
compound,measurement,setting,value
COc1cc2c(cc1OC)C(=O)C(CC1CCN(Cc3ccccc3)CC1)C2 (stereo not drawn) [Donepezil],"effect on NGF production in brain, in words",[1]; normal mice brain,did not affect NGF production
same,NGF concentration,[1]; [4],258.0 pg/mg
same,"cytoprotective activity, in words","[2]; SH-SY5Y cells, Aβ42",low level of cytoprotective activity
same,MTT measurement value (% of Normal),"[2]; differentiated SH-SY5Y cells, Aβ42 48 hours, extracts 10 μg/ml",65.3 % of Normal
same,"effect on beta amyloid production, in words",[3]; normal mice brain,did not affect beta amyloid production
same,Aβ40 concentration,[3]; [4],168.8 pg/mg
